# Reference: patent US20240140991A1 (THE QUEEN'S UNIVERSITY OF BELFAST, priority 2021, published 2024)
# Assay: general procedure: Fmoc solid-phase peptide synthesis; Rink amide MBHA resin (0.67 mmol g-1); 2-chlorotrityl or Wang resin for C-terminal acids; DIC/Oxyma (automated); BOP/DiPEA (manual)
# Conditions: whole synthesis, scale of the general procedure 0.25 mmol
row,Substance,isolated yield
1,FA-sywoOGoATINGG-CONH2,31%
2,FA-sywoOGoWTANGG-CONH2,34%
3,FA-aywoOGoWTINGG-CONH2,34%
4,FA-sywoOAoWTINGG-CONH2,11%
5,FA-sywoOGoWTINGA-CONH2,32%
6,FA-sywoOGaWTINGG-CONH2,28%
7,FA-sawoOGoWTINGG-CONH2,31%
8,FA-sywoOGoWTIAGG-CONH2,6%
9,FA-syaoOGoWTINGG-CONH2,37%
10,FA-sywoOGoWTINAG-CONH2,29%
11,FA-sywoOGoWTIN-CONH2,24%
12,FA-sywoAGoWTINGG-CONH2,30%
13,FA-sywaOGoWTINGG-CONH2,27%
14,FA-sywoOGoWTING-CONH2,29%
15,FA-sywoOGoWAINGG-CONH2,43%
